Test results: patent US4551273A (Eisai Co., Ltd., priority 1983, dated 1985)
HELM strings list residues between dots; [ac] is acetyl, [am] amide, other brackets name non-standard units.

Assay: general procedure: Boc solid-phase peptide synthesis; benzhydrylamine resin (2 mmol/5 g amino group); DCC
Details: whole synthesis

PEPTIDE1{[NMeTyr].G.G.F.L.R.R.[dI].R.P.K.[dL].K.W.[am]}$$$$V2.0
crude mass: 850 mg
isolated yield (scale of the general procedure 5 g resin (2 mmol)): 3.5%
